Measurements as given in US9556179B2 (BRISTOL-MYERS SQUIBB COMPANY, priority 2012, dated 2017).

Amino acid sequences for entries named in this document (tags omitted). A change or cut given only in a name is not applied to a line headed by its entry.
UniProt P48730, whole entry: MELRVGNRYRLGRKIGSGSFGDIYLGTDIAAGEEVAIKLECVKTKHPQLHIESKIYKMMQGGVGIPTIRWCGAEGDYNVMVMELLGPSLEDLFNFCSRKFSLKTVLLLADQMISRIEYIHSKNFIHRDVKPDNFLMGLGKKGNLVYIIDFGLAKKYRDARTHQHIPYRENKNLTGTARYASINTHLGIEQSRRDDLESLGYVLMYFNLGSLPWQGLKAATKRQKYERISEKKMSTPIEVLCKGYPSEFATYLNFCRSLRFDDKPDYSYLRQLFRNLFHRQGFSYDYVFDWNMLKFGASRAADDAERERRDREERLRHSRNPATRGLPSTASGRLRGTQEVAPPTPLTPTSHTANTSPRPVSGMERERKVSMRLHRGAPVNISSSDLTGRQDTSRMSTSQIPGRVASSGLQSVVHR
UniProt P49674, whole entry: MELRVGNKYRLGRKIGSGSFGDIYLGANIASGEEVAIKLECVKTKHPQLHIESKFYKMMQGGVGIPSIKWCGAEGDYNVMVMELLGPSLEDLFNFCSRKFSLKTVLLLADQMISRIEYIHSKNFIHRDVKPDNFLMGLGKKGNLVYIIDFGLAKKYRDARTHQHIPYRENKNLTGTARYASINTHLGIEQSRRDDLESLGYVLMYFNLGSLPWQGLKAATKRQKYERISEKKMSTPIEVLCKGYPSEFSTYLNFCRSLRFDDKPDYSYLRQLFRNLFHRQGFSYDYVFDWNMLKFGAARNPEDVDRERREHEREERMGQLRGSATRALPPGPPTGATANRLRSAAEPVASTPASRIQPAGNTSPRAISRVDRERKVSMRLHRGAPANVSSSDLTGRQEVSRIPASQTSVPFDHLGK

Columns and labels:
CK1δ = CK1δ (Homo sapiens (Human), UniProt P48730); test: CK1δ kinase assay (Caliper LABCHIP electrophoretic separation of fluoresceinated peptide substrate and product); assay type: biochemical; conditions: read-out: CK1δ (IC50); 200 pM enzyme, 50 μM ATP, 22 hours at room temperature
CK1ε = CK1ε (Homo sapiens (Human), UniProt P49674); test: CK1ε kinase assay (Caliper LABCHIP electrophoretic separation of fluoresceinated peptide substrate and product); assay type: biochemical; conditions: read-out: CK1ε (IC50); 200 pM enzyme, 50 μM ATP, 22 hours at room temperature

Question: Which results are given for Cc1nc(-c2ccc(F)cc2)c(-c2ccc3nc(NC(=O)C4CCN(Cc5ccccc5)CC4)cn3n2)n1C?
Answer: IC50 (CK1δ): 3.17 nM; IC50 (CK1ε): 6.47 nM

Structures were worked out from names or drawings and are uncertain.
